From patent US10093706
For some assays here: The comparison behind a weaker result is the experiment's own reference, which may not be listed here. For some assays here: Construct, isoform or probe ends are uncertain for at least one entry. For some assays here: At least one result comes from cells or an extract, where the contact may be indirect.

By UniProt entry, the sequences of proteins in these tests, tags left out.
UniProt Q15365, whole entry A205V: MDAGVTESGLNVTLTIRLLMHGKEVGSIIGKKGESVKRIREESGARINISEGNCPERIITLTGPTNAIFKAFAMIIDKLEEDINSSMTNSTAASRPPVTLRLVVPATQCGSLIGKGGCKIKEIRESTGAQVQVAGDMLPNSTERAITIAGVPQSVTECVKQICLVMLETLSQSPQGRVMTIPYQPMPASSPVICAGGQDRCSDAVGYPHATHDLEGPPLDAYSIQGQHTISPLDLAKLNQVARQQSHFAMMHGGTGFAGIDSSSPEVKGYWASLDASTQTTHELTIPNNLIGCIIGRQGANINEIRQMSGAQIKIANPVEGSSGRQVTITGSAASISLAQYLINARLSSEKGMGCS

What was measured:
[1] = target: hnRNP-E1 (PCBP1) wild-type (Homo sapiens) (UniProt Q15365); assay: EMSA; settings: 15 uM L-homocysteine; mutations 1 to 5 progressively quenched signal; purified recombinant protein; protein details: GST fusion (pGEX-4T-1, E. coli BL21); variant of 25-nt hnRNP-E1 mRNA 5'-UTR cis-element
[2] = target: hnRNP-E1 (PCBP1) wild-type (Homo sapiens) (UniProt Q15365); assay: binding assay; settings: purified recombinant protein, protein details: GST fusion (pGEX-4T-1, E. coli BL21), label: 35S
[3] = target: hnRNP-E1 (PCBP1) endogenous (Homo sapiens) (UniProt Q15365); assay: pull-down; settings: protein in cells; protein details: endogenous in placental 1584 cells; label: 35S

## CUUCCGCCCGCUUCCGCUCGCUCCC [25-nt cis-element mutation 4]
[1]
  binding result: binds more weakly

## CUCCCGCCCGCUCCCGCUCGCUCCC [25-nt hnRNP-E1 mRNA 5'-UTR cis-element]
[2]; 10 uM L-homocysteine, Scatchard
  Kd: 1.14 nM
[2]; 25 uM L-homocysteine, 5 uM iron(II)
  Kd: 3.72 nM
[2]; 25 uM L-homocysteine, 25 uM iron(II)
  Kd: 6.5 nM
[2]; 25 uM L-homocysteine, no iron(II)
  Kd: 2.74 nM
[2]; 50 uM L-homocysteine, Scatchard
  Kd: 0.62 nM
[2]; 10 mM glutathione + 15 uM L-cysteine
  Kd: 2.38 nM
[2]; 10 mM glutathione + 15 uM L-homocysteine
  Kd: 1.18 nM
[2]; no L-homocysteine, Scatchard, no gel-shift signal in this condition (FIG. 1B)
  Kd: 1.93 nM
[3]
  binding result: binds

## CUCCCGCCCGCUUCCGCUCGCUUCC [25-nt cis-element mutation 5]
[1]
  binding result: binds more weakly

## CUCCCGCCCGCUUCCGCUCGCUCCC [25-nt cis-element mutation 2]
[1]
  binding result: binds more weakly

## CUUCCGCCCGCUCCCGCUCGCUCCC [25-nt cis-element mutation 1]
[1]
  binding result: binds more weakly

## CUCCCGCCCGCUCCCGCUCGCUUCC [25-nt cis-element mutation 3]
[1]
  binding result: binds more weakly
